Source: patent US20070122376A1, “Pheromones and method of preventing infestation of Contarinia nasturtii” (priority 2004, published 2007)
Some entries share one result that the patent states for a list of compounds. At least one compound was matched to its structure with a doubt left.

These molecules were tested on male C. nasturtii (assay: Wind tunnel assay of male response (landing on odour source)). Details: single components tested individually.
Type: in vivo, Contarinia nasturtii
Method: Calling females were collected from the laboratory culture and submersed in batches in hexane (p.a. grade) for 15 min at room temperature. The supernatant was then decanted and concentrated to the highest concentration tested by blowing off the hexane with N2.
Wind tunnel experiments were performed in the 2nd to 4th hour of the photophase at 22° C. and 73% r.h. in a wind tunnel described in detail by Rauscher et al. (1984). Compounds were diluted in hexane (p.a. grade). For the bioassays, 10 p 1 of the stimulus to be tested was applied onto a piece of fitter paper (Chromatographiepapier “Schleicher & Schuell AG” Auer-Bittmann Soulié AG, Zurich, Switzerland, 69.2 gr/m2, 1 cm^2)which was then placed in the air stream at least 20 sec before the first male was tested. For each stimulus, a series of five males were tested individually, requiring a total of 5-10 min for each series. For each series, a new piece of filter paper was loaded with the respective stimulus.
Males were kept individually in glass tubes (10 cm, 15 mm i.d.) closed at one end with a piece of screen (mesh size 1×1 mm) until they were tested. With these tubes they were transferred into the wind tunnel, where the tube was placed on a pole in horizontal position with the opening upwind, at a distance of 130 cm downwind from the odor source. Time recording was then started and the following steps recorded. Activation by wing-fanning, take off, directed flight towards the odor source, flights closer than 30 cm from the source (“close in”), landing on the source or elsewhere. The test was stopped when no activity or take off was registered during […] or when the insect landed elsewhere.
Of the recorded parameters only the number of successful landings on the source were analyzed

Row | SMILES | tested males started from the release point
1 | CCCCCCCCC[C@H](C)OC(C)=O [(2S)-acetoxyundecane, (2S)-Acetoxyundecane] | Less than 15%
2 | CC[C@@H](CCCCCC[C@H](C)OC(C)=O)OC(C)=O [(2S,9S)-diacetoxyundecane, (2S,9S)-Diacetoxyundecane] | Less than 15%
3 | CC(=O)O[C@@H](C)CCCCCCC[C@H](C)OC(C)=O [(2S,10S)-diacetoxyundecane, (2S,10S)-Diacetoxyundecane] | Less than 15%
